According to paper PMC4838231:
These are yes or no findings as the source states them, for the method shown. Some results given as binding are weak or reduced against the parent protein; the word gives no strength. Sequences can lack the tags named with a protein. Values belong to the binder of their own block, whether it stands above or below them.

Assays:
[1] = biological target: T1, Kin2 (full-length, Gal4 DNA-binding domain fusion from pGBDU-KIN2) (S. cerevisiae) (UniProt P13186); assay: two-hybrid; library screens in yeast strain pJ69-4A or pJ69-4α with a pOAD-cDNA prey library; baits in pGBDU (Gal4 DBD); selection on SC-Leu-Ura-His with 3 mM 3-AT at 30°C, then SC-Leu-Ura-Ade; inserts sequenced
T1 sequence: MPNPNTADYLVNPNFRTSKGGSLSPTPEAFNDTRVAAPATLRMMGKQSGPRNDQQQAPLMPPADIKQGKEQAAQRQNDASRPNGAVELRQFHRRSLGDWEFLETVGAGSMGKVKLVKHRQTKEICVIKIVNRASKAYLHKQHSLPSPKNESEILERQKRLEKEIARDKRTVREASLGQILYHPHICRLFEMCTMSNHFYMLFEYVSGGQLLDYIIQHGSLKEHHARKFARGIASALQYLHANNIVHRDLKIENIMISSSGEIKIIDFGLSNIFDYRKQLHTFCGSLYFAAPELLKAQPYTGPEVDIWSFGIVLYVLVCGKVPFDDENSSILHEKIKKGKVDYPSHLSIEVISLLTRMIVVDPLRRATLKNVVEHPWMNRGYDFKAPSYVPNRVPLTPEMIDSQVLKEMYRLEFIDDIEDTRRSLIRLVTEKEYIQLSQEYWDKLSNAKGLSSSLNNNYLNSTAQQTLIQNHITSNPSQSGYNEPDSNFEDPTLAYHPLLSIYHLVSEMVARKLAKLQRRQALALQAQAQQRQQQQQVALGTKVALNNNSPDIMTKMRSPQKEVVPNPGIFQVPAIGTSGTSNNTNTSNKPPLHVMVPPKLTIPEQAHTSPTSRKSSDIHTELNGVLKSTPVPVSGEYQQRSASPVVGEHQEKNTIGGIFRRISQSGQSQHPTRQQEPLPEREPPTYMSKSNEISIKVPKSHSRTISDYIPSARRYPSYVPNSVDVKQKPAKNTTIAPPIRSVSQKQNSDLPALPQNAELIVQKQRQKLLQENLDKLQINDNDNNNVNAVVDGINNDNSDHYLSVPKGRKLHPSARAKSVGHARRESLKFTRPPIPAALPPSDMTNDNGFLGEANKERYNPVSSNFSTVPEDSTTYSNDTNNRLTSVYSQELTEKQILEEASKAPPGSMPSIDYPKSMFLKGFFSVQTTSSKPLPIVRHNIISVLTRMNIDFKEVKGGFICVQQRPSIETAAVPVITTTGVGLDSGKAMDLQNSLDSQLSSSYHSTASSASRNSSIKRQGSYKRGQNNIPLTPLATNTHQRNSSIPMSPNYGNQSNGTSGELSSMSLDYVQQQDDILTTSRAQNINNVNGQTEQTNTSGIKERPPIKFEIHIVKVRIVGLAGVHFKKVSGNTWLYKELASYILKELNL

[2] = biological target: T2, Kin2-Δ42 (Gal4 DNA-binding domain fusion from pGBDU-KIN2-Δ42) (S. cerevisiae) (UniProt P13186); assay: as above
T2 sequence: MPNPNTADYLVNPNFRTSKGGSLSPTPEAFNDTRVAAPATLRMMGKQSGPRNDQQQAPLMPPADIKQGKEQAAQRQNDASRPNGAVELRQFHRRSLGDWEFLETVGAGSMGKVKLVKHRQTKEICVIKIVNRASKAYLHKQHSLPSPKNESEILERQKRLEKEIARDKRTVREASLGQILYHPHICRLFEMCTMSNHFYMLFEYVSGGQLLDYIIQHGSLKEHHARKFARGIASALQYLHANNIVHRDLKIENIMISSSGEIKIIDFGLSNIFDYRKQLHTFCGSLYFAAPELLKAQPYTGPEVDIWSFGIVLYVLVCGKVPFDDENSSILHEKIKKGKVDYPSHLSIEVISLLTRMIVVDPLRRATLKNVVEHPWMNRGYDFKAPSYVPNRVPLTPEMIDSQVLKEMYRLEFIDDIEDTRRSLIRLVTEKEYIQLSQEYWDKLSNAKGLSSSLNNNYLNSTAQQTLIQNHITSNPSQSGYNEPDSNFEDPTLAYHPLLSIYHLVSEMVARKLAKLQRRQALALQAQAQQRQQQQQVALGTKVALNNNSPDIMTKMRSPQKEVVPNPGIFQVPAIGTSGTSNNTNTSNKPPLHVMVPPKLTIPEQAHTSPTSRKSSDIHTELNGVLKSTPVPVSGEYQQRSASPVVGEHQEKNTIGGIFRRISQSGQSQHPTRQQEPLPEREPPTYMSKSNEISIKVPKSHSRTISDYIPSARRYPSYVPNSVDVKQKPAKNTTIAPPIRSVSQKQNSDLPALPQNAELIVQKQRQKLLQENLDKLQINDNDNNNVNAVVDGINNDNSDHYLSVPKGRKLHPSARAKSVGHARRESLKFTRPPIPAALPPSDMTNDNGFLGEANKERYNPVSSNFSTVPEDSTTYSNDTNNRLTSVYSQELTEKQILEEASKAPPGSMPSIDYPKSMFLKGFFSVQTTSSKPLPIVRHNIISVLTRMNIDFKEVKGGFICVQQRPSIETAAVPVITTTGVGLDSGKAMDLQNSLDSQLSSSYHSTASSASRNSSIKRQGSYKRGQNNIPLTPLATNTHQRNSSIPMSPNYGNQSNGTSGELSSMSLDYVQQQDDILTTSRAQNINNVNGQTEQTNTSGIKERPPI

binding [1]: binds
B1: Irc8 (a.a. 377–822), Gal4 activation domain fusion from pOAD (domain or fragment, UniProt P47046 377-822)
chain: LRVTDKMISPQQSTQNEDSYQATPLIPQVEVDDDFYVGDILMTNELQDIPQVPRISSDIEDDFEQQYTKHVDLPARVTLEMWEKDQEKILQKVTTNRDKSKLLPPFRFTSESDMDPSTSTELEVELHAQNNFSFPFKSAGLQIATSDQFNQQEFKTSDTISELDEYLHDPSIQEEDASQLIESSLNQNNLSSTTIDNGPKDMSRFSTRHSPTKSIISMISGSGSVKHQHSHSTLSNFFTGHSRNNSQINQLLQGSSSNMMSNTSPHSSPTKSLRMRFGKKLSLSNISDTMSPYEGSTTDPINYSFGHGHNKNQSIDFSYVRTLQSSHSPTKSTSGNSRRDSLNNDRTQSTVNERALRTASTLFYLQHNNATCTLNGEEPVLDTPQSIQSSSSGSEQESAGSGSGYPEVVFSEYDREKWNVLRNLKEIAPEKTIESGPVEELVSPSK

binding [2]: binds
B2: Tos1 (a.a. 201–455), Gal4 activation domain fusion from pOAD (domain or fragment, UniProt P38288 201-455)
chain: KTTSSAAAASSSSSSSSNTNGDWSRGSYFVPGSTSNCTFMNNQGGTAGSGVWSSCFGNSISFAASDGVSGAASAQALGDVTIKSGNEFMIFSGEECSGNNGDCGYYREGIPAYHGFGGADKIFVFEFSMPSDTSGSAYNQDMPAIWLLNAKIPRTLQYGDASCSCWKTGCGEMDLFEILTAGSDKLISHIHDGQDGGTQDYFERPTDGTLKAAVIFNSSDKTIHIIEVDESFDATLSDDVVDQWLSKSGSSAALP

binding [2]: binds
B3: Tos1 (a.a. 192–455), Gal4 activation domain fusion from pOAD (domain or fragment, UniProt P38288 192-455)
chain: ESQSSISSSKTTSSAAAASSSSSSSSNTNGDWSRGSYFVPGSTSNCTFMNNQGGTAGSGVWSSCFGNSISFAASDGVSGAASAQALGDVTIKSGNEFMIFSGEECSGNNGDCGYYREGIPAYHGFGGADKIFVFEFSMPSDTSGSAYNQDMPAIWLLNAKIPRTLQYGDASCSCWKTGCGEMDLFEILTAGSDKLISHIHDGQDGGTQDYFERPTDGTLKAAVIFNSSDKTIHIIEVDESFDATLSDDVVDQWLSKSGSSAALP
